Laboratory results reported in PMC8225389.
These are yes or no findings as the source states them, for the method shown. Some entries that bind do so weakly or less than the wild type. Where a sequence is shown, tags or fusion partners need not be part of it.

Protein sequences, listed by entry. Tags and fused reporters are not part of them. Lines headed by an entry give the natural chain unless they say otherwise; changes in a name come on top. Residues count along the entry.
UniProt P02461, residues 154-1221: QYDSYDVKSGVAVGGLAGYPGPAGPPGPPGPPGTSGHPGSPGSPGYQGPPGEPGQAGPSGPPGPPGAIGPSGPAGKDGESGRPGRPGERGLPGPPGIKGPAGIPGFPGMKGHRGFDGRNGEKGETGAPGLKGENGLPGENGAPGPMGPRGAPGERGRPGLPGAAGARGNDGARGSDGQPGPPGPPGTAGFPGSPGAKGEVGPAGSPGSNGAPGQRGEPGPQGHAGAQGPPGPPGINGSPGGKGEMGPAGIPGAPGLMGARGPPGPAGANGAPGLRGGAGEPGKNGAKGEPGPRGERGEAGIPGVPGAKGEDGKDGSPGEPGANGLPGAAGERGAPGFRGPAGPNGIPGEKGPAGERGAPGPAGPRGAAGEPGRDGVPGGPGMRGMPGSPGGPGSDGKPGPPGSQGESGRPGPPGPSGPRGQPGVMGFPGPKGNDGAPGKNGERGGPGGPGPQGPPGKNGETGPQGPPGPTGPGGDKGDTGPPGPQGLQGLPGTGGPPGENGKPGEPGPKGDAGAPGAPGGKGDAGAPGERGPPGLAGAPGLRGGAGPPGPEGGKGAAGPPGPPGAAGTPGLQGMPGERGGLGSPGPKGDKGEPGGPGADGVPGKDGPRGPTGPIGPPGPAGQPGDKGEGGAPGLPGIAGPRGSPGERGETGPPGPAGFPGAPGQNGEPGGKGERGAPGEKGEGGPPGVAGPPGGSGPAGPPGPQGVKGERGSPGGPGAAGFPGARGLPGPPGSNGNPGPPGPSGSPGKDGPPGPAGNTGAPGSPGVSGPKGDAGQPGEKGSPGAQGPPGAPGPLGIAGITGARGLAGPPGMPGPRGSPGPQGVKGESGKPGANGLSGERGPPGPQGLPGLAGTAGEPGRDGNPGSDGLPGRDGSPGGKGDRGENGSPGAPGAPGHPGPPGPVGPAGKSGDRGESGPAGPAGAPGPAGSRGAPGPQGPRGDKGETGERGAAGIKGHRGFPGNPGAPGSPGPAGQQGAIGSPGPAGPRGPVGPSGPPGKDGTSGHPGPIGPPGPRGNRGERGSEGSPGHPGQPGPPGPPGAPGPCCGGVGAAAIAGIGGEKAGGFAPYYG
UniProt P13941, residues 155-1218: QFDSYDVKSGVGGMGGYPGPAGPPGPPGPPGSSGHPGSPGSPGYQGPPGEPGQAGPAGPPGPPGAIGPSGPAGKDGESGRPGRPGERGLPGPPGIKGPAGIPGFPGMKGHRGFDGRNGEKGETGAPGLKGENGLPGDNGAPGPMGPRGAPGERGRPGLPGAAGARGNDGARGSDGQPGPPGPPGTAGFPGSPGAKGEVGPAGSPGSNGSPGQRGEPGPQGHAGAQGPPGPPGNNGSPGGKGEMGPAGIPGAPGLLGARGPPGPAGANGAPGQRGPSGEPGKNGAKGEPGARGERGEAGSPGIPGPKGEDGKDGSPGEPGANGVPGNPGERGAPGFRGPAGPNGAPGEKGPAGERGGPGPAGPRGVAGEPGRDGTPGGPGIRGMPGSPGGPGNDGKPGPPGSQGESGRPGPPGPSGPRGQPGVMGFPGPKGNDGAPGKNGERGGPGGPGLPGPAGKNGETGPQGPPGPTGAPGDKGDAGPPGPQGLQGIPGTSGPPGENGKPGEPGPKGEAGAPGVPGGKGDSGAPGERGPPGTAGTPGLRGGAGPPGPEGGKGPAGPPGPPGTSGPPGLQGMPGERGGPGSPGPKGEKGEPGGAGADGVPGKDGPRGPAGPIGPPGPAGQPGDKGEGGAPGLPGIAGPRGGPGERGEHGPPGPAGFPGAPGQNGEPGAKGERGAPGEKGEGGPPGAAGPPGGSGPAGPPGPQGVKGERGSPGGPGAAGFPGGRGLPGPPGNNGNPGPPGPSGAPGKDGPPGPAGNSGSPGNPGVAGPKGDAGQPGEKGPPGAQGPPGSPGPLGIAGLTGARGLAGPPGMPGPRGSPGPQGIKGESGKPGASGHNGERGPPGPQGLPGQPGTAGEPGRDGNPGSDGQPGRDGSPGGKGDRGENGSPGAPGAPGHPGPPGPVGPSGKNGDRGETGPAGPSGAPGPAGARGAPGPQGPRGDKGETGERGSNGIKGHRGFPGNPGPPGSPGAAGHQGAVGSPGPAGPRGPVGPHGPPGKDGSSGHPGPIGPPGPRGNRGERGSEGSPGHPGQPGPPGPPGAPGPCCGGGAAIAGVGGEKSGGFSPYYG
UniProt P02454: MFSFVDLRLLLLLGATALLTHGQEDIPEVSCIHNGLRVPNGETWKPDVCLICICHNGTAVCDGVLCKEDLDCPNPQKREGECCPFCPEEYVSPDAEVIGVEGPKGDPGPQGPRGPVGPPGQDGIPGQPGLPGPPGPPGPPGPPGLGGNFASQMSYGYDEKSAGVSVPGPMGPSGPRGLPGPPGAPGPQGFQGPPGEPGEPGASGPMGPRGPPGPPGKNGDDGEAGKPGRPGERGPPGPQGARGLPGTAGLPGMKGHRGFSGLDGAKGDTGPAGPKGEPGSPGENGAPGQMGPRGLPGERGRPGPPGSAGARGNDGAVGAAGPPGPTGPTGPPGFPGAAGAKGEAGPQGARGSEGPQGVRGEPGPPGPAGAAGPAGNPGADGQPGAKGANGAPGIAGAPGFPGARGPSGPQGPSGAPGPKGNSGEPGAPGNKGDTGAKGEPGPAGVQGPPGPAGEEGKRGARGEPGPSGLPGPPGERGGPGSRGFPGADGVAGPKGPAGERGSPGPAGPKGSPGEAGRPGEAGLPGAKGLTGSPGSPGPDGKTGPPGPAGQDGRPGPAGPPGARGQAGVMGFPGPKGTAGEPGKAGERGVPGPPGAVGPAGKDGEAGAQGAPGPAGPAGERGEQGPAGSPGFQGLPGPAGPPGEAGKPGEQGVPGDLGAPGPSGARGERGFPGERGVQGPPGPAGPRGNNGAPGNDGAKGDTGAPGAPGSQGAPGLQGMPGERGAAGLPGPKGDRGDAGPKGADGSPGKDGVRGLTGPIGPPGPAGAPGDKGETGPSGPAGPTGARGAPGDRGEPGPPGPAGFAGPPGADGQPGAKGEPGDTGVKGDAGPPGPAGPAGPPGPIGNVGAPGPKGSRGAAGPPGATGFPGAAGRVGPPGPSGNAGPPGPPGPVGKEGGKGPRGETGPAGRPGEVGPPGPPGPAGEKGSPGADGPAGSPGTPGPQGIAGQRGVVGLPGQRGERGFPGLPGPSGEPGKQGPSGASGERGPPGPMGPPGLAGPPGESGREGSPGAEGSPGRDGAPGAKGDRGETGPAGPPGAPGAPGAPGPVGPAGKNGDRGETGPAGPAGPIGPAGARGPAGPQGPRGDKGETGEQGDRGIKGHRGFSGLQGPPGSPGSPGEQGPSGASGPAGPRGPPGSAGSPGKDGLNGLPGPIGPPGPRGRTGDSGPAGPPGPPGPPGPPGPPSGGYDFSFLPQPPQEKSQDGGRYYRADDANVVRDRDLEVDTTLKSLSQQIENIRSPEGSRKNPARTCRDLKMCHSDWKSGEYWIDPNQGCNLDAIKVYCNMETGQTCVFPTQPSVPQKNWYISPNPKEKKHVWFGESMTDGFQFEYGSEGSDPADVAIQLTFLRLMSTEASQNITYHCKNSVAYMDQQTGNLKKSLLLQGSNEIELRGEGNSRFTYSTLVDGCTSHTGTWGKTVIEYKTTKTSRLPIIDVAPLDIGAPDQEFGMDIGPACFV
UniProt P02452: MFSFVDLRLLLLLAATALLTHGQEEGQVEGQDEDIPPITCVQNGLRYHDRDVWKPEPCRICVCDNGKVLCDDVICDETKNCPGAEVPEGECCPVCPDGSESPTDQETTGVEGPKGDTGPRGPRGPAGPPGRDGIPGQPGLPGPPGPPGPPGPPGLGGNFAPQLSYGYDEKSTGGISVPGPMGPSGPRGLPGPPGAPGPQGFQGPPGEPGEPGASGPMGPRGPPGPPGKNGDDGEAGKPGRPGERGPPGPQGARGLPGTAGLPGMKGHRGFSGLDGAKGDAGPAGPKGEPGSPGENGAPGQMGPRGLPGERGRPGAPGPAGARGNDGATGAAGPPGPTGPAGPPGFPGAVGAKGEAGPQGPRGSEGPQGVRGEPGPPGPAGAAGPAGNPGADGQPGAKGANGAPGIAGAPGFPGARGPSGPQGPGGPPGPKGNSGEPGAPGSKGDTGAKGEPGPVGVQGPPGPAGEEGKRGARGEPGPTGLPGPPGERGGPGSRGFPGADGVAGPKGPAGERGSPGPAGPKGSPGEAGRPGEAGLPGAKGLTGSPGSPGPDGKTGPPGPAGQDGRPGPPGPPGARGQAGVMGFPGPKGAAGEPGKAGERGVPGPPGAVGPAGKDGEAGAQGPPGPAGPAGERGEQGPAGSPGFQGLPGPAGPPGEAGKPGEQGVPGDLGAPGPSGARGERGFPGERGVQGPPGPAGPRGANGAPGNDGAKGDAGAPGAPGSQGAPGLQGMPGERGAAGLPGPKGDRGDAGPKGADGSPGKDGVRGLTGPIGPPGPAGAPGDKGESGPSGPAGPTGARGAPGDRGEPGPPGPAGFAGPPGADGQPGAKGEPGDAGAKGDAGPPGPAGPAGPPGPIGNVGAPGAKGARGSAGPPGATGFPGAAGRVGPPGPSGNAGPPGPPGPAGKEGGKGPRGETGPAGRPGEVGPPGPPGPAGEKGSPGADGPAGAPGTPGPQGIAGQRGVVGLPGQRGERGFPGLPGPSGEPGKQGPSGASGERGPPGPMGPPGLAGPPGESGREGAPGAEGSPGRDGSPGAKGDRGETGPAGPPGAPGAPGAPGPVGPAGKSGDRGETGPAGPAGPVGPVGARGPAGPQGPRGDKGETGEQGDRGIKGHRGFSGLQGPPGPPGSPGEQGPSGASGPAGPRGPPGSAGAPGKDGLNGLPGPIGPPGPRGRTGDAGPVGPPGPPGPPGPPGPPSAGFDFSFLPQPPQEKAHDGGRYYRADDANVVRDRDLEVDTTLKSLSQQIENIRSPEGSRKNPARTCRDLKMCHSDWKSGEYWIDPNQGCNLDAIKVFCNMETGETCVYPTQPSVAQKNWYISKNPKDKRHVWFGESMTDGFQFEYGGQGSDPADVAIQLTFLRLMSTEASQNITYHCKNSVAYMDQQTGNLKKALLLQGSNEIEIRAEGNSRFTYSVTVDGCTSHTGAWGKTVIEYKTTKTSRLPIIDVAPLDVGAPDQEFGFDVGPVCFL
UniProt P08123: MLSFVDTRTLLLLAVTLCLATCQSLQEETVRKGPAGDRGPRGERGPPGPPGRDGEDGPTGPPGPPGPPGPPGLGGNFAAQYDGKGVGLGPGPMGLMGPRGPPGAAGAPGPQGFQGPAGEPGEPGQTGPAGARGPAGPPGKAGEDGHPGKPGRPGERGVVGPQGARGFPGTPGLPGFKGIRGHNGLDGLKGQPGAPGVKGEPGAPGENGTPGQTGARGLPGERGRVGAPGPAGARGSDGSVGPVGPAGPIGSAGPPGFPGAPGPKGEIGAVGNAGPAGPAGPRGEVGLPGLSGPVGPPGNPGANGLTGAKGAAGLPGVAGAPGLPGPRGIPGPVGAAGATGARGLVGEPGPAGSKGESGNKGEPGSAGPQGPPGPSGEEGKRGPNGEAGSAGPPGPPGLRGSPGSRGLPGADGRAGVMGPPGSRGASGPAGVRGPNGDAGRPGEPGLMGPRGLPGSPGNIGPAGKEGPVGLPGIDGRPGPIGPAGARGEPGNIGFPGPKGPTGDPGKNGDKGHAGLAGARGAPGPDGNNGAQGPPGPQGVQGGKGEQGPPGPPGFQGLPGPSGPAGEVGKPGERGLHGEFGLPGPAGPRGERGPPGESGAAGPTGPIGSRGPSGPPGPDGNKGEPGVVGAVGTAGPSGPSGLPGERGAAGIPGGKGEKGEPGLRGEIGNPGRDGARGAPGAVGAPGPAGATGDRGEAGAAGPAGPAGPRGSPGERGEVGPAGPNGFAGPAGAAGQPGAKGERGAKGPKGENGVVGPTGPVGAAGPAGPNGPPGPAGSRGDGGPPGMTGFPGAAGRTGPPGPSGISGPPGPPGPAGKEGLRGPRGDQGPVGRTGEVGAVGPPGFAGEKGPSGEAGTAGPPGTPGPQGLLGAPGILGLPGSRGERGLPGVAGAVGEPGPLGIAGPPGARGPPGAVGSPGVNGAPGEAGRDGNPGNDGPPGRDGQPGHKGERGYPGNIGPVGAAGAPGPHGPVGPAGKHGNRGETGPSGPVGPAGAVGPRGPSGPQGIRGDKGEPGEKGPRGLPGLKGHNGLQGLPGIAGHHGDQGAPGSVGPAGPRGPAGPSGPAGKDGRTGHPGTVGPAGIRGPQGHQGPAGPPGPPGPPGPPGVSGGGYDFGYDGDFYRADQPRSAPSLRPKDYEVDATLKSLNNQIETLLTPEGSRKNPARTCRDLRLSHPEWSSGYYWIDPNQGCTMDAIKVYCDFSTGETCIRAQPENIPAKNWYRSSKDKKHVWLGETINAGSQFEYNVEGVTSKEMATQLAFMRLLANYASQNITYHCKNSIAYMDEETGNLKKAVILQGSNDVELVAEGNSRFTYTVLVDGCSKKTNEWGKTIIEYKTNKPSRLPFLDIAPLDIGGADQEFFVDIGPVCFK

T1: NC410, a dimeric LAIR-2 human IgG1 Fc fusion protein (human) (UniProt Q6ISS4)
T1 sequence: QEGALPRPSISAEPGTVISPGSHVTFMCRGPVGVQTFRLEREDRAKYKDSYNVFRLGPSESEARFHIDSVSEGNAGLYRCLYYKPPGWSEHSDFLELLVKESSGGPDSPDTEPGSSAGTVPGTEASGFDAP


What follows are molecules tested against T1, NC410, a dimeric LAIR-2 human IgG1 Fc fusion protein (human) (assay: BLI; ForteBio Octet RED96, avidity; anti-human Fc capture sensors loaded with LAIR-2-Fc (NC410, 20 µg/mL in ForteBio assay buffer), dipped into collagen I (1.56-100 µg/mL) or collagen III (0.78-50 µg/mL); both purified).

Row | Molecule | binding
1 | human collagen III (R&D Systems) (from UniProt P02461 154-1221) | binds
2 | rat collagen III (Yo Protein) (from UniProt P13941 155-1218) | binds

The next lines start with the values.

Row | binding | Molecule
3 | binds | mouse collagen I (Ray Biotech) (from UniProt P11087 152-1207; Q01149 86-1125)
4 | binds | rat collagen I (Yo Protein) (from UniProt P02454 152-1207; P02466 86-1125)

What follows are molecules tested against human collagen I (StemCell) (human) (UniProt P02452+P08123) (assay: time-resolved fluorometry (TRF) immunoassay; EIA plates coated with human collagen I in 0.01 N HCl overnight at 4°C, blocked with 3% BSA; mixture of NC410 and human LAIR-1 Fc (one of them biotinylated) 2 hr at ambient temperature; Europium-labeled streptavidin, DELFIA; both purified).

Row | binding | Molecule
5 | binds | NC410, a dimeric LAIR-2 human IgG1 Fc fusion protein (Fc fusion, UniProt Q6ISS4 22-152) QEGALPRPSISAEPGTVISPGSHVTFMCRGPVGVQTFRLEREDRAKYKDSYNVFRLGPSESEARFHIDSVSEGNAGLYRCLYYKPPGWSEHSDFLELLVKESSGGPDSPDTEPGSSAGTVPGTEASGFDAP
6 | binds | human LAIR-1 Fc fusion protein (Fc fusion, UniProt Q6GTX8 22-165, biotin (EZ-Link NHS-PEG4-Biotin)) QEEDLPRPSISAEPGTVIPLGSHVTFVCRGPVGVQTFRLERDSRSTYNDTEDVSQASPSESEARFRIDSVREGNAGLYRCIYYKPPKWSEQSDYLELLVKESSGGPDSPDTEPGSSAGPTQRPSDNSHNEHAPASQGLKAEHLY
